This sample is rich in variants without activity.
B1: tRNA (parent)
chain: GUUCCGUUGGCGUAAUGGUAACGCGUCUCCCUCCUAAGGAGAAGACUGCGGGUUCGAGUCCCGUACGGAACG

Variants of: B1
Assay: yeast fitness relative to wild type (ratio to wild type); higher = fitter; tRNA-Arg(CCU), competitive growth, 37 C, YPD
Outline: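 Amplicons of the tRNA-Arg(CCU) gene were sequenced, 100-nucleotide paired-end, from the start population and from each end population of a pooled yeast competition. The competition, in six parallel replicates, lasted 24 hours in YPD at 37°C. Fitness relative to wild type was calculated from changes in genotype frequencies. Genotypes had to have ≥ 100 starting reads, and estimates < 0.5 were set to 0.5.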

Variant | yeast fitness
GUUCCGUUGGCGUAAUGGUAACGCGUCUCCCUCCUAAGGAGACGACUGGGGGUUCGGGUCCCGUACGGCACG [A43C C49G A57G A69C] | ≤ 0.5
GUUCCGUUGGCGUAAUGGUAACGCGUCUCCCUCAUAAGGAGAAGACUGCGGGUUCGUGUCCCGUACCGAACG [C34A A57U G67C] | 0.605
GUUCCAUUGGCGUAAUGGUCACGCGUCUCCCUCCUAAGGAGAAGACUGCGGGUUCGAGUCCCGUAAGGAACG [G6A A20C C66A] | 0.549
GUUCCGUUGGCGUAAUGUUAACGCGUCUCCCUCUUAAGGAGAAGACUGCGGGUUCGAGUCCCGUACGGAACG [G18U C34U] | ≤ 0.5
GUUCCGUUGGCAUAAUGGUAAGGCGUAUCCCUCCUAAGGAGAAGACUGCGGGUUCGAGUCCCGUACGGAACG [G12A C22G C27A] | 0.663
GUGCCAUUGGCGUAAUGGUAACGCGUCUCCCUCCUAAGGAGAAGACUGCGGGUUCGAGUCCCGCAUGGAACG [U3G G6A U64C C66U] | ≤ 0.5
GUUCUGUUGGCGUAAUGGUAACGUGUCUCCCUCCUAAGGAGCAGACUGCGGGUUCGUGUCCCGUACGGAUCG [C5U C24U A42C A57U A70U] | ≤ 0.5
GUUCCGUUGAGGUAAUGGUGACGCGUCUCCCUCCUAAGGAGAAGACUGCGGGUUCGAGUCCCGUACGGAACG [G10A C11G A20G] | ≤ 0.5
GUUCCGGUGGCGUGAUGGUAACGCGUCUCCUUCCUAAGGAGAAGACUGCGGGUUAGAGUCCCGUACGGAACG [U7G A14G C31U C55A] | ≤ 0.5
GUUCCGUUGGCGUAAUGGUAACGCGUGUUCCUCCUAAGGAGAAGACUGCGGGUUCGAGUCCCCUACGGAACG [C27G C29U G63C] | ≤ 0.5
GUUCCGUUGGCGUAAUGGUAACGUGUUUCCCUCCUAAGGGGAAAACUGCGGGUUCGAGUCCCGUACGGAACG [C24U C27U A40G G44A] | ≤ 0.5
GUUUCGUUGGCGUAAUGGUAUCGGGUCUCCCUCCUAAGGAGAAGACCGCGGGUUCGAGUCCCGUACGGAACG [C4U A21U C24G U47C] | ≤ 0.5
GUUCCGUUGGCGUAAUGGUAACGCGUCUCCCUCCUAAGGAGACGACUGGGGGUUCGAGUCACGUACGGAACG [A43C C49G C61A] | 0.702
GUUCCGUUGGCGUAAUGGUAACGCGUCUCCCUCCUAAGGAGAAGACUGCGGGUUCGGGUCCCGUGUGGAACG [A57G A65G C66U] | 0.65
GUUCCGUUGGCGUAAUGGUAACGCGCCUCCCUCCUAAGGAGAAGAAGGCAGGUUCGACUUCCGUAGGGAACG [U26C C46A U47G G50A G58C C60U C66G] | ≤ 0.5
GUUGCGUCGGCGUAAUGGUAACGCGUCUCCCUCCUAAGGAGAAGACUCCGGGUUCGAGUCCCGUACGGAACG [C4G U8C G48C] | 0.568
GUUCCGUUGGCGUAACGGUAACGCGUCUCCCUCCCAAGGAGAAGACUGCGGGUUCGAGUCCCGUACGGAUCG [U16C U35C A70U] | ≤ 0.5
GUUCCGUUGGCGUAAUGGUAUCGCGUCACCCUCCUAAGGUGAAGACUGCGGGUUAGAGUCCCGUACGGAACG [A21U U28A A40U C55A] | ≤ 0.5
GUUCCCUUGGCGUAAUGGUAGCGGGUCUCCAUCCUAAGGAGAAAACUGCGGGUUCGAGUCCCGUACGGAACG [G6C A21G C24G C31A G44A] | ≤ 0.5

Variant | yeast fitness
GUUCCGUUGGCGUAAUGGUAACGCGUCUCGCUCCCAAGGAGAAGAUUGCGGGUUCGAGUCCCGUCCGGAACG [C30G U35C C46U A65C] | ≤ 0.5
GUUCCGGUGGCGUAAUGGUAACGCGUGUCCCCCCUGAGGAGAAGACUGCGGGAUCAAGUCCCGUACGGAACG [U7G C27G U32C A36G U53A G56A] | ≤ 0.5
GUUCCGUUGGUGUAAUGGUAACGCGUCUCCCUCCUAAGGAGCAGACUGCGGGUUCGAGUUCCGUACGGAACG [C11U A42C C60U] | ≤ 0.5
GUUCUGUUGGUGUAAUGGUAACGCGUCUCCCUCCUAAGGAGAAGACUGCGGGUUCGAGUCCUGUACGAAACG [C5U C11U C62U G68A] | ≤ 0.5
GUUCCGUUGGCGUAAGGGUAAGGCGUCUCCCUCCUAAGGAGAAGACGGCGGGUUCGAGUCCCGUACGGAACG [U16G C22G U47G] | 0.557
GUUCCGUUGGCGUAAUGGUAACGCGUCUGCCUCCAAAGGAGAAGACUGCGGGUUCGAGUCCCGCACGGAACG [C29G U35A U64C] | ≤ 0.5
GUUCUGUUGGCGUAAUGGUAAGGCGUCUCCCUCCUAAGGAAAAGACUGCGGGUUCGAGUCCCGUACGGAGCG [C5U C22G G41A A70G] | ≤ 0.5
GUUCCGUUGGCGUAAUGGUAACGCGUCUCCCUCCUUAGGAGAAGUCUGCGGCUUCGUGUCCCGUACGGAACG [A36U A45U G52C A57U] | ≤ 0.5
GUUCCGUUGGUGUAAUGGUAACGCGUCUCCCUCCUAAGAAGAAGACUGCGGGUUGAAGUCCCGUACGGUGCG [C11U G39A C55G G56A A69U A70G] | ≤ 0.5
GUUCCGGUGGUGUAAUGGUAACGCGUAUCCCUCCUCAGGAGUAGACUGCGGGUUCGAGUCCCGGACGGAACG [U7G C11U C27A A36C A42U U64G] | ≤ 0.5
GUUCCGUUGGCGUAAUGGUAACGCGUCUCCCUCCUAAGAAGAAGACUGCGAGAUCGAGUCCCCUACGGAACG [G39A G51A U53A G63C] | ≤ 0.5
GAUCCGUUCGCGUAAUGGUAACGCGUCUCCCUCCAGAGGAGAAGACUGCGGGUUCGAGUCCCGUACGGAACG [U2A G9C U35A A36G] | ≤ 0.5
GUUCCGUUGGCGUAAUGGUAACGCAUCUCCCUCCUAAGGAGAAGACUGCGGUUCCGAGUCCCGUACGGAACG [G25A G52U U54C] | ≤ 0.5
GUUCCGUUGGCGUAAUGGUAACGCGUCUCCCUUCUAAGGAGCAGACUGCGGGUUCGAGUCUCGUACGGAACG [C33U A42C C61U] | ≤ 0.5
GUUGCGUUGGCGUAAUGGUAACGCGUCUCCCUCCUAACGAGAAAACUGCGGGUUCGAGUCCCGUACGGAACG [C4G G38C G44A] | ≤ 0.5
GUUCCGUUGGCGUAAUGGUCACGCGUCUCCGUCCUAAGGAGAAGACUGCGGAUUCGAGUCCCGUACGGCACG [A20C C31G G52A A69C] | ≤ 0.5
GUUCCGUUGGUGUAAUGGUAACGCGUCUCCCUCCUAAGGAGAAGACUGCGGGUUCAAGUCGCGUACGGAACG [C11U G56A C61G] | ≤ 0.5
GUUCCGUUGGCGUAAUGGUAACGCGUCUCCCCCCUAAGGAGAAGAGUGCGGCUUCGAGUCCCGUACGCAACG [U32C C46G G52C G68C] | ≤ 0.5
